These are yes or no findings as the source states them, for the method shown. Binding seen in cells or lysates may run through a third protein. Binding can be weak; no strength is given. Sequences can lack the tags named with a protein.
Molecular target: T1, Lactococcus lactis Csm2 (LlCsm2) with N-terminal His6-tag (Lactococcus lactis) (UniProt L0CFW2)
T1 sequence: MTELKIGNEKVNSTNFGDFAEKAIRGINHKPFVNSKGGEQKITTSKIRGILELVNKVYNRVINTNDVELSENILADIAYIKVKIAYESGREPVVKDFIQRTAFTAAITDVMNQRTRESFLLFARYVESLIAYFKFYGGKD
Experiment: co-purification (Ni-NTA affinity, then size exclusion); all Csm subunits and the crRNA co-expressed in E. coli from one plasmid; complex isolated by the N-terminal His6-tag on LlCsm2; size-exclusion column in 20 mM HEPES pH 7.5, 200 mM NaCl, 5 mM MgCl2, 14 mM 2-mercaptoethanol; the complex is a ribonucleoprotein with crRNA

| binding | Substance |
| --- | --- |
| binds | Lactococcus lactis Csm1 (LlCsm1) (enzyme) |
| binds | Lactococcus lactis Csm1 H13A (enzyme) |

Source: PMC8476571
